According to the supplement of paper PMC10849652:
Some of the results follow.

Amino acid sequences for entries named in this document (tags omitted). A change or cut given only in a name is not applied to a line headed by its entry.
UniProt Q9BU70: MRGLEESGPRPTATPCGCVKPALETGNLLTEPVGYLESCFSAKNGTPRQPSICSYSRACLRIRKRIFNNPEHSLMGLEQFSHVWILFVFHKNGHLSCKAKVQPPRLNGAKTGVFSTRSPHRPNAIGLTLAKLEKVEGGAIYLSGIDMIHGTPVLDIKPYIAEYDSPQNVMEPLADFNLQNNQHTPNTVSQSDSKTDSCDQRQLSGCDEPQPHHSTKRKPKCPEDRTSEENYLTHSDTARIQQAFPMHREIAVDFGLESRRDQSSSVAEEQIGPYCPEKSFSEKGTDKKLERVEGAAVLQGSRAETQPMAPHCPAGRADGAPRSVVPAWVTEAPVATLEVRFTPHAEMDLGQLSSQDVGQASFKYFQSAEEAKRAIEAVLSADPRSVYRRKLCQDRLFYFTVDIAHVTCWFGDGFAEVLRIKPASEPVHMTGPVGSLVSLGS
UniProt Q8TD43: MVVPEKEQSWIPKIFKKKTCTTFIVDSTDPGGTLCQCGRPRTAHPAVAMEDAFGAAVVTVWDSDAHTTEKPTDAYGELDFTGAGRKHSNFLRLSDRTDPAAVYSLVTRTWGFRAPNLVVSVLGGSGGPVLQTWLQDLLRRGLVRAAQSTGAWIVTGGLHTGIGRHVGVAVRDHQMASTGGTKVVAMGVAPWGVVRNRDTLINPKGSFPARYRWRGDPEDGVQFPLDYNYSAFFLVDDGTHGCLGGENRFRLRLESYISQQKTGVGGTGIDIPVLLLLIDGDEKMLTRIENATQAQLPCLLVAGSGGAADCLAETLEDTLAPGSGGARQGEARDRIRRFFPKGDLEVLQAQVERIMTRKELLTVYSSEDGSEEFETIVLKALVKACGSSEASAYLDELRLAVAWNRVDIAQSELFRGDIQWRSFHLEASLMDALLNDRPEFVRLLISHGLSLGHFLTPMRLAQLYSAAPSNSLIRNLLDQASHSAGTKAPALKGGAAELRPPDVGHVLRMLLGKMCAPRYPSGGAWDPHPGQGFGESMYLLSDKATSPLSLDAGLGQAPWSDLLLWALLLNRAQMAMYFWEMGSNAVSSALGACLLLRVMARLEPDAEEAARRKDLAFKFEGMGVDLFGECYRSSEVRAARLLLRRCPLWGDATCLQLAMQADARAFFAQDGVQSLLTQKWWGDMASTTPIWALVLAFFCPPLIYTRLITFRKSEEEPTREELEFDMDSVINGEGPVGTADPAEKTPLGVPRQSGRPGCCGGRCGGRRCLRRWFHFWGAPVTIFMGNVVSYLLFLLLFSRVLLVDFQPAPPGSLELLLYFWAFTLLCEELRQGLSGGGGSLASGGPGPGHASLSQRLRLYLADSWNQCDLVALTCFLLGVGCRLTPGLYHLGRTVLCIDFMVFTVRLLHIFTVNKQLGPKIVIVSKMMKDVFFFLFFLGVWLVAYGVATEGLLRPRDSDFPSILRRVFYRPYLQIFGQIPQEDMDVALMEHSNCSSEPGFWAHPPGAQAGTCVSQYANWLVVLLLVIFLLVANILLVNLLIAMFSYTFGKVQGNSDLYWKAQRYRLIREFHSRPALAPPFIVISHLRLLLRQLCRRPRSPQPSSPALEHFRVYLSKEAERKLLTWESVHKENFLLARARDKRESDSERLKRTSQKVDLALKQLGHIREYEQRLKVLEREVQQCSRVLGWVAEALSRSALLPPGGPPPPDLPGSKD
UniProt Q8N4P2: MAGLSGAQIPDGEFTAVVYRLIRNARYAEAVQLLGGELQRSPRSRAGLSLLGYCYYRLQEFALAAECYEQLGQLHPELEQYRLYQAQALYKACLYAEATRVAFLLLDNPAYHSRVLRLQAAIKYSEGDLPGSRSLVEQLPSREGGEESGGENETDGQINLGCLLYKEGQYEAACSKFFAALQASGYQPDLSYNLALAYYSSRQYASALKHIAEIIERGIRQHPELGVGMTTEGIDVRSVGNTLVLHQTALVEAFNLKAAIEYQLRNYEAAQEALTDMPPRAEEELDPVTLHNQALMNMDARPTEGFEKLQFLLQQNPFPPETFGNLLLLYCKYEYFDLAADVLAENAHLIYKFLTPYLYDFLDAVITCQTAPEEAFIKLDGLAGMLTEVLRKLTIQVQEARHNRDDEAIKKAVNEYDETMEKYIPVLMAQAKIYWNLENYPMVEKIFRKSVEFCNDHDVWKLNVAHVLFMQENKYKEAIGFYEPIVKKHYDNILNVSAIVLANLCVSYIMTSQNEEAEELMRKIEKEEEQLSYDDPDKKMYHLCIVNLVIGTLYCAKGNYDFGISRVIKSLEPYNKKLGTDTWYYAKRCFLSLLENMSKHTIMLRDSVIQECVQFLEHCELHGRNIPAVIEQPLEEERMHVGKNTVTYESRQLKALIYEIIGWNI
UniProt Q96QT4: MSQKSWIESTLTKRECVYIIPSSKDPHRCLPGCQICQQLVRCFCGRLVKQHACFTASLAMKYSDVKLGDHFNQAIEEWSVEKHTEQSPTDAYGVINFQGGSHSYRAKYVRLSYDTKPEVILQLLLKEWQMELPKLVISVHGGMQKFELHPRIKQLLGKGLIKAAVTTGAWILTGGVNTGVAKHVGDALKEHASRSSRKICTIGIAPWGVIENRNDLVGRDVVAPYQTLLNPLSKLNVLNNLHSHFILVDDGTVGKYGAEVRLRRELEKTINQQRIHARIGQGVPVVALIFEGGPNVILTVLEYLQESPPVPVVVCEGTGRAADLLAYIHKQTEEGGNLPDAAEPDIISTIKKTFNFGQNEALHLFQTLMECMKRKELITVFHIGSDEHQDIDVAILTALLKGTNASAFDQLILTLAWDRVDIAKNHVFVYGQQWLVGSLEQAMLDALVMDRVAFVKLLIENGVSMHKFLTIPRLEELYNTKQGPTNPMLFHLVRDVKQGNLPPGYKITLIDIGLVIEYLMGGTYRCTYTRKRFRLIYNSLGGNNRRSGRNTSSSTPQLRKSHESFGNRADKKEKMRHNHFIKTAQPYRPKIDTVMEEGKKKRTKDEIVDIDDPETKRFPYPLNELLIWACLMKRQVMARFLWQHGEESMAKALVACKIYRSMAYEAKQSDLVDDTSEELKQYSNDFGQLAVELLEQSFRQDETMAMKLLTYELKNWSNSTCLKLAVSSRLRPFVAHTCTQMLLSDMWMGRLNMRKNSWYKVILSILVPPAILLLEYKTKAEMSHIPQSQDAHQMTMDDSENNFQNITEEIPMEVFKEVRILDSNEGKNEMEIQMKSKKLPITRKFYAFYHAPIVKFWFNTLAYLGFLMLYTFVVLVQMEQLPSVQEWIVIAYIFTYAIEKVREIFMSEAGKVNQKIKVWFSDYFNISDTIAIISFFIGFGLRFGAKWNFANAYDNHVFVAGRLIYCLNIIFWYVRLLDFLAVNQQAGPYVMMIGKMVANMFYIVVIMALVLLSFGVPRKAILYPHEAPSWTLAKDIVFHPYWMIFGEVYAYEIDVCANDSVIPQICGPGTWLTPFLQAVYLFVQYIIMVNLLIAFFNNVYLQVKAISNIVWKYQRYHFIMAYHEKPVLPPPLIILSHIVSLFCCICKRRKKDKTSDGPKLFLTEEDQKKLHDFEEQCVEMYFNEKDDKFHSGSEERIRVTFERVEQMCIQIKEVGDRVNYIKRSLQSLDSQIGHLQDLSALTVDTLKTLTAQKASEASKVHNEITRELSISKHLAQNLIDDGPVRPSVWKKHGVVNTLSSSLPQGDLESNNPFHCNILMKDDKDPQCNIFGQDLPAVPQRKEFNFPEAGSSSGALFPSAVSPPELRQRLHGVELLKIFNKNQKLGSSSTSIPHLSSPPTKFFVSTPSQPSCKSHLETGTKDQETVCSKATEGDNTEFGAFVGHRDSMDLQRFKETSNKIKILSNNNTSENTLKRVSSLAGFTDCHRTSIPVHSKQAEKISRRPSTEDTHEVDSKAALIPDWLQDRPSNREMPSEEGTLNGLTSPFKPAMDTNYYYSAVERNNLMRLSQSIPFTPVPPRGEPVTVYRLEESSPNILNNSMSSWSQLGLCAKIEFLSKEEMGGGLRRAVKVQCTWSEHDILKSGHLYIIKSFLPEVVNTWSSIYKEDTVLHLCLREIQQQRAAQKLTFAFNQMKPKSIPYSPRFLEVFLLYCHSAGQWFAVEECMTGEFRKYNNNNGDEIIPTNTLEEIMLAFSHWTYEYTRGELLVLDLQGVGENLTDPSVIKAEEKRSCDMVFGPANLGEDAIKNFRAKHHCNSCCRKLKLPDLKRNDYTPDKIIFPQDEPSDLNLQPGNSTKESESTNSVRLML
UniProt Q15714: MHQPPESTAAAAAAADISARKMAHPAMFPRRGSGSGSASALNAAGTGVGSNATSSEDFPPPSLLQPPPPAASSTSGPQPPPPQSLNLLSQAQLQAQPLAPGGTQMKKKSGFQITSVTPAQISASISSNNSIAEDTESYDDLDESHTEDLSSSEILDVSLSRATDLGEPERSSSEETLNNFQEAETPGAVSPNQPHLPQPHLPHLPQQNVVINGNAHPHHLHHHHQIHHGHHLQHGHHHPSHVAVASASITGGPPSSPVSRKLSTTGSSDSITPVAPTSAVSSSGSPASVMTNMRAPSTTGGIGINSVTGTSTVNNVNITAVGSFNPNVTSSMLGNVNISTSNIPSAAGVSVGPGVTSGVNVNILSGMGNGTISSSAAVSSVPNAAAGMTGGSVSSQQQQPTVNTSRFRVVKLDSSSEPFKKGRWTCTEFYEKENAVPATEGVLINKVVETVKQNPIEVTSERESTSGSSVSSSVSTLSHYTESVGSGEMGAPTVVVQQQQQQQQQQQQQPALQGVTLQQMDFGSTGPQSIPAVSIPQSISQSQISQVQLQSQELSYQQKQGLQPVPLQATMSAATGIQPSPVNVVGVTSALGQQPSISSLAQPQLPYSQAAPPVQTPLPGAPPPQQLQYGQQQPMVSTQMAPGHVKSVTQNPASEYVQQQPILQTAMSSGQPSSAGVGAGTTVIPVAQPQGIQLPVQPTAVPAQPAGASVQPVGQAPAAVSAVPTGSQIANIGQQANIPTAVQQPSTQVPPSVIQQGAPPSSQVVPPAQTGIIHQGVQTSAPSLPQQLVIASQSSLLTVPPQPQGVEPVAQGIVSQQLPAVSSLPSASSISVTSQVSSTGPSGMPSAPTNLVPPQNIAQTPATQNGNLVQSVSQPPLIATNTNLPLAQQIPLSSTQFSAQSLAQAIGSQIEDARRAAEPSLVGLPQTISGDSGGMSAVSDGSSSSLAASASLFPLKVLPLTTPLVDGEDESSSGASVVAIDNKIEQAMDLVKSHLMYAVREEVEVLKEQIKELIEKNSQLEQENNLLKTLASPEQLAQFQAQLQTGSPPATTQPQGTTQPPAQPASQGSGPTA
UniProt Q8IYL2: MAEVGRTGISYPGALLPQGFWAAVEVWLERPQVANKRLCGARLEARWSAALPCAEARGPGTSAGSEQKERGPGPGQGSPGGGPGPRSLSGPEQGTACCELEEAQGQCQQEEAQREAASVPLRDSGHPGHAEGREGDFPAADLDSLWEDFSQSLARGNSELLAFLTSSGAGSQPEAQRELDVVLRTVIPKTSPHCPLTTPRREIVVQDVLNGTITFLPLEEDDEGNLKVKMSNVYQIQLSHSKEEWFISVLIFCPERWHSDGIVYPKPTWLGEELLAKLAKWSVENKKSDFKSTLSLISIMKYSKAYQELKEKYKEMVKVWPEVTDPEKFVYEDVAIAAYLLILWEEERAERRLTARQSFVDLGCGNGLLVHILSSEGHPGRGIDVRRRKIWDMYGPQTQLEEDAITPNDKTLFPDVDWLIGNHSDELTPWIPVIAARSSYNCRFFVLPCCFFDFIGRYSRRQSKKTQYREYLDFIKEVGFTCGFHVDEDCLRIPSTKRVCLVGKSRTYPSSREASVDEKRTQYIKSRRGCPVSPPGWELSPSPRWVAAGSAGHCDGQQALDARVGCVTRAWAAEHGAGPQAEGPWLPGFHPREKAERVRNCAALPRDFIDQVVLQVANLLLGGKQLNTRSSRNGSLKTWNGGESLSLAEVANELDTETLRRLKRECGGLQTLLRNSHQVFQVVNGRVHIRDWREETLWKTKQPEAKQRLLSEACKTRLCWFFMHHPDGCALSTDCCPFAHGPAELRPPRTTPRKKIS
UniProt Q6PF06: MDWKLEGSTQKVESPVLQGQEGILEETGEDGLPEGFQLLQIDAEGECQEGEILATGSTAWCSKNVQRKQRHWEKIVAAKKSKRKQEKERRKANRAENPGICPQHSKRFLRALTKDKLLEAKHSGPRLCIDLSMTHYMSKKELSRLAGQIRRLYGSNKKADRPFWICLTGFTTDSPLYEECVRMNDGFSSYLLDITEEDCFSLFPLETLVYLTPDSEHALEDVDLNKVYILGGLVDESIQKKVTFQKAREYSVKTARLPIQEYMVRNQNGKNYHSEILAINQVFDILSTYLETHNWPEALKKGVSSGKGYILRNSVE

Key:
Experiment in all cases: log2 fold change, soluble protein after heating vs DMSO (PISA); higher = thermal stabilisation; K562 lysate, 10 uM; active = over 0.2 and 3.5 SD of the protein, either way, in both replicates (recomputed)
[1] = compound: C1=CC=C(C=C1)C2=NC(=C(N2)C3=CC=NC=C3)C4=CC(=C(C=C4)Cl)O
In short: (§1)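 Dounce homogenisation of K562 pellets in PBS pH 7.4 with 1 mM MgCl2 produced a crude extract, used at 1 mg/mL protein. Exposure to 10 μM compound lasted 30 min, and aliquots were then heated for 3 min across 48°C-58°C, pooled and brought to 0.5% NP-40 at 4°C. The supernatant after 21,000xg for 90 min was quantified by TMTpro 16plex LC-MS/MS with channel sums equalised. Duplicate values are given as log-two fold change in thermal stability relative to solvent controls.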

[2] = compound: C1CCN(C1)C(=O)NC2=CC=CC(=C2)NC3=NC=C(C(=N3)NCCC4=CN=CN4)Br
In short: as §1

[3] = compound: C1CN(CCC1(CC2=CC=C(C=C2)Cl)N)C3=NC=NC4=C3C=CN4
In short: as §1

[4] = compound: C1COCCN1CCN2C3=CC=CC=C3N=C2NC(=O)C4=CC(=CC=C4)[N+](=O)[O-] [IRAK-1-4 Inhibitor I]
In short: as §1

[5] = compound: CC(C)(C)Cn1c(N)nc2ccc(-c3[nH]c(C(C)(C)C)nc3-c3ccc(F)cc3)nc21 [ralimetinib]
In short: as §1

[6] = compound: CC(C)(O)CC(=O)NCCn1ccc2ncnc(Nc3ccc(Oc4cccc(C(F)(F)F)c4)c(Cl)c3)c21
In short: as §1

[7] = compound: CC1=C(C(CC(=O)N1)C2=CC=C(C=C2)C(F)(F)F)C(=O)NC3=C(C=C4C(=C3)C=NN4)F
In short: as §1

[8] = compound: CC1=C(C2=C(C=C1)C(=O)C3=CC=CC=C3N2CCCN)C
In short: as §1

[9] = compound: CC1=C(C=C(C=C1)NC(=O)C2=CC(=CC=C2)N(C)C)NC(=O)C3=CC=C(C=C3)O
In short: as §1

[10] = compound: C/C(=N\NC(=O)C1=CC(=CC=C1)S(=O)(=O)N2CCOCC2)/C3=C(C=CC(=C3)Cl)O
In short: as §1

[11] = compound: C1=CC2=C(C=CC(=C2)/C=C\3/C(=O)NC(=NCC4=CC=CS4)S3)N=C1
In short: as §1

[12] = compound: C1=CC2=NC=CN=C2C=C1/C=C/3\C(=O)NC(=O)S3
In short: as §1

[13] = compound: C1=CC=C2C(=C1)C3=NNC4=CC=CC(=C43)C2=O
In short: as §1

[14] = compound: C=CC(=O)N1CCC[C@@H](n2nc(-c3ccc(Oc4ccccc4)cc3)c3c(N)ncnc32)C1 [ibrutinib]
In short: as §1

[15] = compound: CC1=C(C=C(C=C1)NC(=O)C2=CC(=CC=C2)C(C)(C)C#N)NC3=CC4=C(C=C3)N=CN(C4=O)C
In short: as §1

[16] = compound: CC(=O)c1cnc2ccc(-c3cc(Cl)c(O)c(Cl)c3)nc2c1N[C@H]1CC[C@H](CN(C)C)CC1
In short: as §1

[17] = compound: CC1=CC=C(C=C1)SC2=C3C=C(SC3=CN=C2)C(=O)N
In short: as §1

[18] = compound: C#Cc1cccc(Nc2ncnc3cc(OCCOC)c(OCCOC)cc23)c1 [erlotinib]
In short: as §1

[19] = compound: C1=CC(=CC=C1C2=NC3=C(N2)C=C(C=C3)C(=O)N)OC4=CC=C(C=C4)Cl
In short: as §1

[20] = compound: CC(C)C1=C2N=C(C=C(N2N=C1)NCC3=CC=CC=C3)NCCCCCCN
In short: as §1

Measured: log2 fold change

TTC26
inactive: [1] -0.159 | [2] 0.099 | [3] 0.213 | [4] -0.155 | [5] 0.105 | [6] -0.048 | [7] -0.033 | [8] 0.097 | [9] -0.355

TRMO (UniProt Q9BU70)
inactive: [10] 0.052 | [11] 0.049 | [12] -0.01 | [13] -0.112 | [2] -0.071 | [3] -0.172 | [14] 0.178 | [8] -0.103 | [15] -0.07

TRAM2 (UniProt Q15035)
inactive: [1] -0.074 | [4] -0.015 | [16] 0.05 | [5] 0.032 | [6] -0.158 | [15] 0 | [9] 0.003 | [17] 0.106

TRIM37 (UniProt O94972)
inactive: [18] 0.138 | [19] -0.062 | [1] -0.017 | [2] 0.017 | [3] 0.069 | [4] 0.158 | [5] -0.308 | [6] 0.057 | [20] 0.051 | [8] 0.066 | [15] -0.037 | [9] -0.01

TTBK2 (UniProt Q6IQ55)
inactive: [18] 0.124 | [19] -0.166 | [2] -0.153 | [3] 0.06 | [20] 0.128 | [15] -0.026

TRPM4 (UniProt Q8TD43)
inactive: [18] 0.018 | [19] 0.164 | [12] -0.094 | [1] 0.004 | [4] -0.152 | [14] 0.099 | [5] -0.021 | [6] -0.063 | [20] -0.325 | [8] -0.055 | [15] 0.116 | [9] 0.05

TTC30B (UniProt Q8N4P2)
inactive: [10] -0.289 | [11] 0.006 | [13] -0.157 | [2] -0.158 | [3] -0.02 | [15] -0.144

TRPM7 (UniProt Q96QT4)
inactive: [10] -0.137 | [11] 0.091 | [1] 0.073 | [13] -0.008 | [2] -0.1 | [3] 0.005 | [4] -0.097 | [16] -0.231 | [5] 0.102 | [6] -0.257 | [7] 0.04 | [8] -0.003 | [15] -0.131 | [9] -0.01 | [17] -0.039

Three neighbouring entries already listed:
TTC26
inactive: [1] -0.159 | [2] 0.099 | [3] 0.213 | [4] -0.155 | [5] 0.105 | [6] -0.048 | [7] -0.033 | [8] 0.097 | [9] -0.355

TRMO (UniProt Q9BU70)
inactive: [10] 0.052 | [11] 0.049 | [12] -0.01 | [13] -0.112 | [2] -0.071 | [3] -0.172 | [14] 0.178 | [8] -0.103 | [15] -0.07

TRAM2 (UniProt Q15035)
inactive: [1] -0.074 | [4] -0.015 | [16] 0.05 | [5] 0.032 | [6] -0.158 | [15] 0 | [9] 0.003 | [17] 0.106

Next part:

TSC22D1 isoform 2 (UniProt Q15714)
inactive: [1] 0.073 | [2] -0.481 | [3] 0.249 | [4] -0.039 | [5] 0.314 | [6] 0.003 | [15] 0.053 | [9] -0.183

TRMT44 (UniProt Q8IYL2)
inactive: [15] 0.003

TTC13 (UniProt Q8NBP0)
inactive: [10] 0.122 | [11] -0.044 | [12] -0.036 | [1] -0.103 | [13] -0.118 | [4] 0.176 | [14] 0.06 | [16] 0.099 | [5] 0.132 | [6] -0.212 | [15] 0.029 | [9] -0.057 | [17] -0.209

TRMT10B (UniProt Q6PF06)
inactive: [1] 0.027 | [4] 0.08 | [5] -0.058 | [6] -0.18 | [9] 0.161

TRAF7 (UniProt Q6Q0C0)
inactive: [10] 0.006 | [11] -0.042 | [1] -0.026 | [13] -0.151 | [2] -0.05 | [3] 0.116 | [4] -0.047 | [5] 0.046 | [6] -0.091 | [7] 0.023 | [8] -0.022 | [15] 0.07 | [9] -0.031
